Results on six compounds are retold here after US9040516B2, “Uracil derivative and use thereof for medical purposes” (SUMITOMO DAINIPPON PHARMA CO., LTD., priority 2011, dated 2015).

Sequences of proteins named here, by UniProt entry; tags and fusion partners are left off. Residues count along the entry.
UniProt P08246, 30-267 limits assumed: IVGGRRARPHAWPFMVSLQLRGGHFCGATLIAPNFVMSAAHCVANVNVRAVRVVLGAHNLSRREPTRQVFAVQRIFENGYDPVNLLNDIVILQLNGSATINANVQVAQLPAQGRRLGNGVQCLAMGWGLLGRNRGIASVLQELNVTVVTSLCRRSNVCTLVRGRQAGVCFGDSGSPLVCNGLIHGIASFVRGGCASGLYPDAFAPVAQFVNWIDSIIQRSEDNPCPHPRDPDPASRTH

The target of this assay is human neutrophil elastase (Homo sapiens, UniProt P08246). Kind of assay: Inhibitory action 2 against human neutrophil elastase (Test Example 2; fluorogenic substrate MeOSuc-AAPV-AMC, buffer with 400 mM NaCl, 0.2 mg/ml BSA). The settings on record: read-out: IC50 value (compound concentration required for 50% inhibition of human neutrophil elastase), 37° C. The procedure: Assay buffer (0.4 unit/ml HNE (human neutrophil elastase, available from Elastin Products Company), 200 mM HEPES [N-(2-hydroxyethyl)piperazine-N′-(2-ethanesulfonic acid)], pH 7.5, 400 mM NaCl, 0.2 mg/ml BSA (bovine serum albumin)) 100 μl, water for injection 20 μl and 1% DMSO (dimethyl sulfoxide) solution of the present compound 20 μl were mixed in a 96 well plate and the mixed solutions were pre-incubated at 37° C. for five minutes. After pre-incubation, MeOSuc-AAPV-AMC (methoxysuccinyl-alanyl-alanyl-prolyl-valyl-aminomethyl cumaride (available from Sigma Aldrich Corp.) solution as fluorogenic substrate (which was dissolved in 10% DMSO solution so as to adjust to 0.5 mM) 40 μl was added to the above-prepared mixed solution so as to initiate the reaction, and the mixture was incubated at 37° C. for five minutes. The fluorescence intensity of AMC was measured at an excitation wavelength of 380 nm and a fluorescence wavelength of 460 nm and the inhibition ratio was determined.

SMILES strings stand for the structures. Structures were worked out from names or drawings and are uncertain.

For the compound `Cc1c(-c2c(CC(N)=O)cnn2-c2ccc(C#N)cc2)c(=O)n(C)c(=O)n1-c1cccc(C(F)(F)F)c1`, the IC50 stood at 26 nM.
Consider `Cc1c(-c2c(S(=O)(=O)N3CCCC3)cnn2-c2ccc(C#N)cc2)c(=O)n(C)c(=O)n1-c1cccc(C(F)(F)F)c1`, for which the IC50 is 21.7 nM.
As for `CCn1c(=O)c(-n2c(CCOC)nnc2-c2ccc(C#N)cc2)c(C)n(-c2cccc(C(F)(F)F)c2)c1=O`, the IC50 came to 22.3 nM.
As to `CCNC(=O)c1cnn(-c2ccc(C#N)cc2)c1-c1c(C)n(-c2cccc(C(F)(F)F)c2)c(=O)n(C(C)C)c1=O`, the IC50 was determined as 6 nM.
The value for `CC(=O)NS(=O)(=O)c1cnn(-c2ccc(C#N)cc2)c1-c1c(C)n(-c2cccc(C(F)(F)F)c2)c(=O)n(C)c1=O` was 14.3 nM; that for `CCn1c(=O)c(-c2c(C(=O)N3CCOCC3)cnn2-c2ccc(C#N)cc2)c(C)n(-c2cccc(C(F)(F)F)c2)c1=O` was 7.9 nM.
